{"sequences": {"note": "By UniProt entry, the sequences of proteins in these tests, tags left out. Where a name states a change or a piece, a line headed by the entry shows the natural chain unless it says otherwise.", "UniProt O43524": "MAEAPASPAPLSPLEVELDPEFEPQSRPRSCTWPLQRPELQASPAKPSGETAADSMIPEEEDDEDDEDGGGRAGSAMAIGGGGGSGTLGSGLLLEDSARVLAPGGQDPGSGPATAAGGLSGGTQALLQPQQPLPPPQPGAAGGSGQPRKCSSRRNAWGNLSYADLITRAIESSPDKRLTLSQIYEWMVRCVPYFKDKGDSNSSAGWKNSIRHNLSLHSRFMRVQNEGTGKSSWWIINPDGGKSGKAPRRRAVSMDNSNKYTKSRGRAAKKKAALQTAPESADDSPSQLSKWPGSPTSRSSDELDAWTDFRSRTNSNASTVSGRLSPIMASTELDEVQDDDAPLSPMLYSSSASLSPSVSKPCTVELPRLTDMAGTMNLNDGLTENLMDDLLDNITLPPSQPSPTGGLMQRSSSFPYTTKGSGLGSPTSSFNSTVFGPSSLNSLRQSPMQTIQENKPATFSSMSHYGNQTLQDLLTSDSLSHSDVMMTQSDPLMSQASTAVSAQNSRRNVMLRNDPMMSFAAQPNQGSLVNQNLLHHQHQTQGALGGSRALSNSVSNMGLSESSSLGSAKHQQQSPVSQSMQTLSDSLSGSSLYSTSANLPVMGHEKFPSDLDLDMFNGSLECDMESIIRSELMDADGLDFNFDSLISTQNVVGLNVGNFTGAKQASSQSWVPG"}, "source": "paper PMC3743769", "key": {"FOXO3a [1]": {"target": "FOXO3a (UniProt O43524)", "experiment": "competition with a labelled probe", "settings": "50-fold excess abolished binding to probes 1 and 2; […], DTT, glycerol, EDTA, NaCl, MgCl2, Tris; concentrations and pH not stated), room temperature 20 min, protein in an extract"}, "FOXO3a [2]": {"target": "FOXO3a (UniProt O43524)", "experiment": "EMSA", "settings": "10-20 ug nuclear extract, dose-dependent; […], DTT, glycerol, EDTA, NaCl, MgCl2, Tris; concentrations and pH not stated), room temperature 20 min, protein in an extract, label: 3'-biotin"}}, "note": "The exact form of at least one protein or probe is not confirmed. Results from cells or extracts need not show a direct contact.", "data": [{"sequence": "ATGGCCCAGGCACTGTTTACAGCAGCTCT (double strand) [cold probe (unlabeled probe 1)]", "values": [{"measurement": "binding result", "setting": "FOXO3a [1]", "value": "binds"}]}, {"sequence": "TTGATGCACATATGTTTACAATGCAGCCTC (double strand) [probe 2 (PRNP -1177 to -1170)]", "values": [{"measurement": "binding result", "setting": "FOXO3a [2]", "value": "binds"}]}, {"sequence": "ATGGCCCAGGCACTGTTTACAGCAGCTCT (double strand) [probe 1 (PRNP -1299 to -1292)]", "values": [{"measurement": "binding result", "setting": "FOXO3a [2]", "value": "binds"}]}]}
